# According to publication PMC6158883:
# By UniProt entry, the sequences of proteins in these tests, tags left out. Residues count along the entry.
# UniProt O60506: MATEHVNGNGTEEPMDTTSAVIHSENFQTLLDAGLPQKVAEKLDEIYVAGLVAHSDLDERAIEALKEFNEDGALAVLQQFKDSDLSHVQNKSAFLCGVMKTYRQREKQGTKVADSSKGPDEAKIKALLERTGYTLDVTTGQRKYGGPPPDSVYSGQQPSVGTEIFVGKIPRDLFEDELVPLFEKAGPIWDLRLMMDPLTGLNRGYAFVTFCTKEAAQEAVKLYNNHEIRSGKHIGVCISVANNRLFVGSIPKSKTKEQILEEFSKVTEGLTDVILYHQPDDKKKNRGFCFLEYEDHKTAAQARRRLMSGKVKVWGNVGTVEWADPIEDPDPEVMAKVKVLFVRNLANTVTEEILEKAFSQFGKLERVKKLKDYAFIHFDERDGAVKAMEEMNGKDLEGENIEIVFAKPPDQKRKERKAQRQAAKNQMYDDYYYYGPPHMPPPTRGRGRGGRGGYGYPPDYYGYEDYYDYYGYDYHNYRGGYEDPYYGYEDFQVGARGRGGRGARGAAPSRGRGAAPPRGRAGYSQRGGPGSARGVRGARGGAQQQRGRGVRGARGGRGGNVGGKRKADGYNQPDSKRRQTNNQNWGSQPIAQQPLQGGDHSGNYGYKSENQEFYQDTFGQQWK
# UniProt P00374: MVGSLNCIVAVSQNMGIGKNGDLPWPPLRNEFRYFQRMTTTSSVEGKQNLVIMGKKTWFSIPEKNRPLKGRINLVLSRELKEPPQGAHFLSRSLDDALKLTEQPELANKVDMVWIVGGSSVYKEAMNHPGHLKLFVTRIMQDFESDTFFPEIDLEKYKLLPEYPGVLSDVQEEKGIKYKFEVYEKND
# UniProt P11142: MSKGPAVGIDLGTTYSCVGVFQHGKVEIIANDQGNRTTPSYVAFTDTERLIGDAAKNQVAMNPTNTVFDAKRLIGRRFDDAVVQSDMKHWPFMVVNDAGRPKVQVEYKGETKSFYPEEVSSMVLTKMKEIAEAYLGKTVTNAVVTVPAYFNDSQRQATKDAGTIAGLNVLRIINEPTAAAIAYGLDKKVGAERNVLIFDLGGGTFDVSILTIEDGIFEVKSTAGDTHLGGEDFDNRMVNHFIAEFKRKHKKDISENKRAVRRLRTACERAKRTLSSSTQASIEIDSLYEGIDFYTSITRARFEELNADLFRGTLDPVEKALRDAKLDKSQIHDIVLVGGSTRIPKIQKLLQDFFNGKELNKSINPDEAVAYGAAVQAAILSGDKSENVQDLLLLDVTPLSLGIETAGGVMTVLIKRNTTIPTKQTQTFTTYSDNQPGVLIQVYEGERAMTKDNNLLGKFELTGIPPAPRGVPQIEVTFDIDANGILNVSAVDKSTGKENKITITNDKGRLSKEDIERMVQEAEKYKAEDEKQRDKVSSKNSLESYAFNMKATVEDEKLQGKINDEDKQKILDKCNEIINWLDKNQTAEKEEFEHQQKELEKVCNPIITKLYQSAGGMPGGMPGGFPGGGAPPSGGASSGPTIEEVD
# UniProt P04792: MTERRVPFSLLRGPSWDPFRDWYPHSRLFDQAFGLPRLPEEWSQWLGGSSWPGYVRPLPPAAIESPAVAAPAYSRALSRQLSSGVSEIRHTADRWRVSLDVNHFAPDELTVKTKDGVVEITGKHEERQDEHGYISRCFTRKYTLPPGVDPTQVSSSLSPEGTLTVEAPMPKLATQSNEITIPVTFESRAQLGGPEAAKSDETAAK
# UniProt Q15393: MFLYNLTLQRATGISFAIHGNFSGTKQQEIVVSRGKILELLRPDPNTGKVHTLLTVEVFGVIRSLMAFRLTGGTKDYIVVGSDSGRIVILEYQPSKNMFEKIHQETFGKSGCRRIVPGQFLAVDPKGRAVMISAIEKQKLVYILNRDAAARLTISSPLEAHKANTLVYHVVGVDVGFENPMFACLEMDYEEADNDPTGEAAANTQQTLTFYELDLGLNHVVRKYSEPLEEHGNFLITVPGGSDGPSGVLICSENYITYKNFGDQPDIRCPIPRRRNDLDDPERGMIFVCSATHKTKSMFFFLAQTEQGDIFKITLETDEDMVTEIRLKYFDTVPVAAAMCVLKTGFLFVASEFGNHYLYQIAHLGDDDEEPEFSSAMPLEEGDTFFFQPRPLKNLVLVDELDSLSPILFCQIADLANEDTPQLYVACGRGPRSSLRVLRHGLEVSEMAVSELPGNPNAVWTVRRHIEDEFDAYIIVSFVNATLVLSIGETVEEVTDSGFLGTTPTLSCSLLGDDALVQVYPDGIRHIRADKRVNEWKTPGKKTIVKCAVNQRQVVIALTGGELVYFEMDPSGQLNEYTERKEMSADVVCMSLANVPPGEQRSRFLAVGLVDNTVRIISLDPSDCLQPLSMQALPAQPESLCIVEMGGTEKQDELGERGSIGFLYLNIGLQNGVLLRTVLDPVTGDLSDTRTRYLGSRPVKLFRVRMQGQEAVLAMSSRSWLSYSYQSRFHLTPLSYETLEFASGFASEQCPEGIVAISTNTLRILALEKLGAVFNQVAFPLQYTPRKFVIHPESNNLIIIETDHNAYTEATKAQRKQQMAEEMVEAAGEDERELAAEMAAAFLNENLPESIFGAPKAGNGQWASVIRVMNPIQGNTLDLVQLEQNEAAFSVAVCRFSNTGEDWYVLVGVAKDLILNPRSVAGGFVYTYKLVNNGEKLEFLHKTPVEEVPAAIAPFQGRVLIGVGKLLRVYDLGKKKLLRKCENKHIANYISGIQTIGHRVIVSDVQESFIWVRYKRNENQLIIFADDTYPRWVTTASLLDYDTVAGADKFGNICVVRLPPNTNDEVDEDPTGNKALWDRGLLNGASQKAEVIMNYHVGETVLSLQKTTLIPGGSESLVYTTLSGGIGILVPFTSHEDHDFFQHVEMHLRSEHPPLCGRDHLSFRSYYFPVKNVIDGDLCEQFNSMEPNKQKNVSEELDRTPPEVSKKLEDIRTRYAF
# UniProt P10809, residues 27-573: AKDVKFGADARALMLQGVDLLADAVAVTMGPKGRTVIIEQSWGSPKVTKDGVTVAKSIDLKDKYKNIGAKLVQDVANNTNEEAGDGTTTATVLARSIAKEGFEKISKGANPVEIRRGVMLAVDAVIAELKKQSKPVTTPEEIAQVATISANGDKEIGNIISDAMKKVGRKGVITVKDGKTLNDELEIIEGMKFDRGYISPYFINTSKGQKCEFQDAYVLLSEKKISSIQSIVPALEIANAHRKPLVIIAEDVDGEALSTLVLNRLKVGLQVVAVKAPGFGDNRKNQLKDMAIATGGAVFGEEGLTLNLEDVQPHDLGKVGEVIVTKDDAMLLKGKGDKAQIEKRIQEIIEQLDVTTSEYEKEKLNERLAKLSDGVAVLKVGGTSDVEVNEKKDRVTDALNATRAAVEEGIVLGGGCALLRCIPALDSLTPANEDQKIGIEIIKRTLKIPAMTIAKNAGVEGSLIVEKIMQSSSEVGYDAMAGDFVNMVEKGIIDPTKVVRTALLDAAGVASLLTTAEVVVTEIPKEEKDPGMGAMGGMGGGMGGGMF
# UniProt P15311: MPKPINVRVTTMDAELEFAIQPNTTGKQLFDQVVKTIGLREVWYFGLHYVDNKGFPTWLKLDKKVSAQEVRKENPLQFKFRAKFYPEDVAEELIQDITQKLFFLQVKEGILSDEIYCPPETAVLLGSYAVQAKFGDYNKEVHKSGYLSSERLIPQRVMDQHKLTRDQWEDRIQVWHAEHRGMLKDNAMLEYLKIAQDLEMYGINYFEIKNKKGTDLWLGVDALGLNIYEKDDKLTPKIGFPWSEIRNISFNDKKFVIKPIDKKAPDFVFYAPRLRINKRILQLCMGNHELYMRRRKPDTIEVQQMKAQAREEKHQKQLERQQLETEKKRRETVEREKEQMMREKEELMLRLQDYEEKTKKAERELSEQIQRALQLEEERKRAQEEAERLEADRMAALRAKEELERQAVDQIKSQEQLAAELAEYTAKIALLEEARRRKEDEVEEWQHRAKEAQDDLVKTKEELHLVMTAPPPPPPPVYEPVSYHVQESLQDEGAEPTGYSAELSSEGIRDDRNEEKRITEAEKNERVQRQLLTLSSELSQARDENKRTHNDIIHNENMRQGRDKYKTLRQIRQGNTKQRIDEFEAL
# UniProt P04818: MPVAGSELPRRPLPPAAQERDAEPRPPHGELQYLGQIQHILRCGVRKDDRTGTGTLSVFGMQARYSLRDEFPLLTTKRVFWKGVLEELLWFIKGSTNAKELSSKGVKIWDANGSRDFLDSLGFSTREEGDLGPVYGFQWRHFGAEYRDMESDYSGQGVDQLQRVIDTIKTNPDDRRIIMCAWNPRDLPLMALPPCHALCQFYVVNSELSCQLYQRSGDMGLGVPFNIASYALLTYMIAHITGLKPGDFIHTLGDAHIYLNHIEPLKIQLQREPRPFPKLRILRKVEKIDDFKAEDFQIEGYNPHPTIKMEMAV
# UniProt P27694: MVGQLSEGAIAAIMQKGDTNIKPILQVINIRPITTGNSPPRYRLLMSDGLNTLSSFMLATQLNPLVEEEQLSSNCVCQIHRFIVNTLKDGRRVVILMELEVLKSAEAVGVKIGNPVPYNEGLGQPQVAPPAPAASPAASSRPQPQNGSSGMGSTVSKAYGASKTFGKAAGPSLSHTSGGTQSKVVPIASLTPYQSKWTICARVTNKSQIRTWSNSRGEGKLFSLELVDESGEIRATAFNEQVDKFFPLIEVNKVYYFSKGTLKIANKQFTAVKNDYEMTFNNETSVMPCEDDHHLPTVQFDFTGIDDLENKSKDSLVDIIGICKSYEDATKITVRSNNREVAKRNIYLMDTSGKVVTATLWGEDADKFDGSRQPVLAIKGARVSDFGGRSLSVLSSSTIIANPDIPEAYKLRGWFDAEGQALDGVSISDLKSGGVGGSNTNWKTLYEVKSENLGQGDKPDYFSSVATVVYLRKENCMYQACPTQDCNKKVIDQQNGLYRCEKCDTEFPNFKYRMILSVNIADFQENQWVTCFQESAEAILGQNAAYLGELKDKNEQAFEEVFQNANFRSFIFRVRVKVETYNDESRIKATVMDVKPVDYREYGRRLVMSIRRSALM
# UniProt Q12905: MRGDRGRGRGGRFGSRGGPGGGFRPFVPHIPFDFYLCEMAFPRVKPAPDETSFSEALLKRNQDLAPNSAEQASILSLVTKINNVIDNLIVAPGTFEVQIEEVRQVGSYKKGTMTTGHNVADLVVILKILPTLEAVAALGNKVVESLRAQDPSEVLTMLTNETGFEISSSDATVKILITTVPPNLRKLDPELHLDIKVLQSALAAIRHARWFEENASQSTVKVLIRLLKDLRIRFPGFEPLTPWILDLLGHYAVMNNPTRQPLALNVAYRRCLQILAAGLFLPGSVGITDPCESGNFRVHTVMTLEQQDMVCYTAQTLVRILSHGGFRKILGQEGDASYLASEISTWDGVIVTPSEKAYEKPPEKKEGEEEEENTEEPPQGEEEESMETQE
# UniProt P06748: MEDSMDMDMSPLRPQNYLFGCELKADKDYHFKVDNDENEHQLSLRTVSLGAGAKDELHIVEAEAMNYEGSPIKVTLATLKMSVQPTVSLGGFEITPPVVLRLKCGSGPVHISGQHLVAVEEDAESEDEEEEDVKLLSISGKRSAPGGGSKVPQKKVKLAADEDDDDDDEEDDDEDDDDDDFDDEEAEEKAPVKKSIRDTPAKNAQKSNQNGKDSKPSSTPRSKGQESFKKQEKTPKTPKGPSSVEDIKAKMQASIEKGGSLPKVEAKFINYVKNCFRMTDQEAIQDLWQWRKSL
# UniProt P38646, residues 47-679: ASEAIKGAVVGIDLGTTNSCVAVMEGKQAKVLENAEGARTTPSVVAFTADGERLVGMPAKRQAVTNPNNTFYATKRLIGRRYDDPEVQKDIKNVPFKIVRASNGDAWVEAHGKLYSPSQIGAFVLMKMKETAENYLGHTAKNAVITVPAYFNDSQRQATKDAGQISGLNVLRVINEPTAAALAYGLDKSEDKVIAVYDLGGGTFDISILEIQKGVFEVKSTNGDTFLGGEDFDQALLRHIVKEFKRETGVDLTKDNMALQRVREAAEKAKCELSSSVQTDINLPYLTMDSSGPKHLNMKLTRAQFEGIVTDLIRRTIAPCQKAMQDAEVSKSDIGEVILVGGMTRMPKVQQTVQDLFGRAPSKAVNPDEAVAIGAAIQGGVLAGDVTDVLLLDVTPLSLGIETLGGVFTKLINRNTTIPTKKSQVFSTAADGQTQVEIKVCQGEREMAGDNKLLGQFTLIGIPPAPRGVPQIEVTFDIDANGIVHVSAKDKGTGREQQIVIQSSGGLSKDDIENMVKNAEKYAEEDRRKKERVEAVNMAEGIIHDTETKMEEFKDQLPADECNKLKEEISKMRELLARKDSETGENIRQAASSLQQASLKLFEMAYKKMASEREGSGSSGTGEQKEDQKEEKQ
# Results are given in words; binding and its absence hold for the method and conditions named. Binding seen in cells or lysates may run through a third protein. A yes stands for co-enrichment or nearness to the bait. Other partners may have been found. No binding means not detected with the bait.
# T1: Methylenetetrahydrofolate dehydrogenase (NADP+ dependent) 2 (human (endogenous in HCT-116)) (UniProt P13995)
# T1 sequence: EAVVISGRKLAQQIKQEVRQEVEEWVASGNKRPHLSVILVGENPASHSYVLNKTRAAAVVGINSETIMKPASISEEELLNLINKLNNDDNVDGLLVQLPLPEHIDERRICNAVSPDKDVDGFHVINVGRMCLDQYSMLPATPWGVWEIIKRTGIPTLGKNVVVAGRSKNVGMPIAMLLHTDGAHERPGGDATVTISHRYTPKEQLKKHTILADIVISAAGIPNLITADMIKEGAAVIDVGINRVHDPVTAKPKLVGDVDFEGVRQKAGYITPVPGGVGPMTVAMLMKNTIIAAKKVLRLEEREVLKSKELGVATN
# B1: Heterogeneous nuclear ribonucleoprotein M (protein, UniProt P52272 1-730)
# chain: MAAGVEAAAEVAATEIKMEEESGAPGVPSGNGAPGPKGEGERPAQNEKRKEKNIKRGGNRFEPYANPTKRYRAFITNIPFDVKWQSLKDLVKEKVGEVTYVELLMDAEGKSRGCAVVEFKMEESMKKAAEVLNKHSLSGRPLKVKEDPDGEHARRAMQKVMATTGGMGMGPGGPGMITIPPSILNNPNIPNEIIHALQAGRLGSTVFVANLDYKVGWKKLKEVFSMAGVVVRADILEDKDGKSRGIGTVTFEQSIEAVQAISMFNGQLLFDRPMHVKMDERALPKGDFFPPERPQQLPHGLGGIGMGLGPGGQPIDANHLNKGIGMGNIGPAGMGMEGIGFGINKMGGMEGPFGGGMENMGRFGSGMNMGRINEILSNALKRGEIIAKQGGGGGGGSVPGIERMGPGIDRLGGAGMERMGAGLGHGMDRVGSEIERMGLVMDRMGSVERMGSGIERMGPLGLDHMASSIERMGQTMERIGSGVERMGAGMGFGLERMAAPIDRVGQTIERMGSGVERMGPAIERMGLSMERMVPAGMGAGLERMGPVMDRMATGLERMGANNLERMGLERMGANSLERMGLERMGANSLERMGPAMGPALGAGIERMGLAMGGGGGASFDRAIEMERGNFGGSFAGSFGGAGGHAPGVARKACQIFVRNLPFDFTWKMLKDKFNECGHVLYADIKMENGKSKGCGVVKFESPEVAERACRMMNGMKLSGREIDVRIDRNA
# B2: Nuclear fragile X mental retardation-interacting protein 2 (protein, UniProt Q7Z417 1-695)
# chain: MEEKPGQPQPQHHHSHHHPHHHPQQQQQQPHHHHHYYFYNHSHNHHHHHHHQQPHQYLQHGAEGSPKAQPKPLKHEQKHTLQQHQETPKKKTGYGELNGNAGEREISLKNLSSDEATNPISRVLNGNQQVVDTSLKQTVKANTFGKAGIKTKNFIQKNSMDKKNGKSYENKSGENQSVDKSDTIPIPNGVVTNNSGYITNGYMGKGADNDGSGSESGYTTPKKRKARRNSAKGCENLNIVQDKIMQQETSVPTLKQGLETFKPDYSEQKGNRVDGSKPIWKYETGPGGTSRGKPAVGDMLRKSSDSKPGVSSKKFDDRPKGKHASAVASKEDSWTLFKPPPVFPVDNSSAKIVPKISYASKVKENLNKTIQNSSVSPTSSSSSSSSTGETQTQSSSRLSQVPMSALKSVTSANFSNGPVLAGTDGNVYPPGGQPLLTTAANTLTPISSGTDSVLQDMSLTSAAVEQIKTSLFIYPSNMQTMLLSTAQVDLPSQTDQQNLGDIFQNQWGLSFINEPSAGPETVTGKSSEHKVMEVTFQGEYPATLVSQGAEIIPSGTEHPVFPKAYELEKRTSPQVLGSILKSGTTSESGALSLEPSHIGDLQKADTSSQGALVFLSKDYEIESQNPLASPTNTLLGSAKEQRYQRGLERNDSWGSFDLRAAIVYHTKEMESIWNLQKQDPKRIITYNEAMDSPDQ
# B3: SHMT1 (enzyme, UniProt P34896 1-483)
# chain: MTMPVNGAHKDADLWSSHDKMLAQPLKDSDVEVYNIIKKESNRQRVGLELIASENFASRAVLEALGSCLNNKYSEGYPGQRYYGGTEFIDELETLCQKRALQAYKLDPQCWGVNVQPYSGSPANFAVYTALVEPHGRIMGLDLPDGGHLTHGFMTDKKKISATSIFFESMPYKVNPDTGYINYDQLEENARLFHPKLIIAGTSCYSRNLEYARLRKIADENGAYLMADMAHISGLVAAGVVPSPFEHCHVVTTTTHKTLRGCRAGMIFYRKGVKSVDPKTGKEILYNLESLINSAVFPGLQGGPHNHAIAGVAVALKQAMTLEFKVYQHQVVANCRALSEALTELGYKIVTGGSDNHLILVDLRSKGTDGGRAEKVLEACSIACNKNTCPGDRSALRPSGLRLGTPALTSRGLLEKDFQKVAHFIHRGIELTLQIQSDTGVRATLKEFKERLAGDKYQAAVQALREEVESFASLFPLPGLPDF
# B4: SHMT2 (enzyme, UniProt P34897 30-504)
# chain: NAAQTQTGEANRGWTGQESLSDSDPEMWELLQREKDRQCRGLELIASENFCSRAALEALGSCLNNKYSEGYPGKRYYGGAEVVDEIELLCQRRALEAFDLDPAQWGVNVQPYSGSPANLAVYTALLQPHDRIMGLDLPDGGHLTHGYMSDVKRISATSIFFESMPYKLNPKTGLIDYNQLALTARLFRPRLIIAGTSAYARLIDYARMREVCDEVKAHLLADMAHISGLVAAKVIPSPFKHADIVTTTTHKTLRGARSGLIFYRKGVKAVDPKTGREIPYTFEDRINFAVFPSLQGGPHNHAIAAVAVALKQACTPMFREYSLQVLKNARAMADALLERGYSLVSGGTDNHLVLVDLRPKGLDGARAERVLELVSITANKNTCPGDRSAITPGGLRLGAPALTSRQFREDDFRRVVDFIDEGVNIGLEVKSKTAKLQDFKSFLLKDSETSQRLANLRQRVEQFARAFPMPGFDEH
# B5: Heterogeneous nuclear ribonucleoprotein R (protein, UniProt O43390 1-633)
# chain: MANQVNGNAVQLKEEEEPMDTSSVTHTEHYKTLIEAGLPQKVAERLDEIFQTGLVAYVDLDERAIDALREFNEEGALSVLQQFKESDLSHVQNKSAFLCGVMKTYRQREKQGSKVQESTKGPDEAKIKALLERTGYTLDVTTGQRKYGGPPPDSVYSGVQPGIGTEVFVGKIPRDLYEDELVPLFEKAGPIWDLRLMMDPLSGQNRGYAFITFCGKEAAQEAVKLCDSYEIRPGKHLGVCISVANNRLFVGSIPKNKTKENILEEFSKVTEGLVDVILYHQPDDKKKNRGFCFLEYEDHKSAAQARRRLMSGKVKVWGNVVTVEWADPVEEPDPEVMAKVKVLFVRNLATTVTEEILEKSFSEFGKLERVKKLKDYAFVHFEDRGAAVKAMDEMNGKEIEGEEIEIVLAKPPDKKRKERQAARQASRSTAYEDYYYHPPPRMPPPIRGRGRGGGRGGYGYPPDYYGYEDYYDDYYGYDYHDYRGGYEDPYYGYDDGYAVRGRGGGRGGRGAPPPPRGRGAPPPRGRAGYSQRGAPLGPPRGSRGGRGGPAQQQRGRGSRGSRGNRGGNVGGKRKADGYNQPDSKRRQTNNQQNWGSQPIAQQPLQQGGDYSGNYGYNNDNQEFYQDTYGQQWK
# B6: Dolichyl-diphosphooligosaccharide--protein glycosyltransferase subunit 1 (protein, UniProt P04843 24-607)
# chain: ASSEAPPLINEDVKRTVDLSSHLAKVTAEVVLAHLGGGSTSRATSFLLALEPELEARLAHLGVQVKGEDEEENNLEVRETKIKGKSGRFFTVKLPVALDPGAKISVIVETVYTHVLHPYPTQITQSEKQFVVFEGNHYFYSPYPTKTQTMRVKLASRNVESYTKLGNPTRSEDLLDYGPFRDVPAYSQDTFKVHYENNSPFLTITSMTRVIEVSHWGNIAVEENVDLKHTGAVLKGPFSRYDYQRQPDSGISSIRSFKTILPAAAQDVYYRDEIGNVSTSHLLILDDSVEMEIRPRFPLFGGWKTHYIVGYNLPSYEYLYNLGDQYALKMRFVDHVFDEQVIDSLTVKIILPEGAKNIEIDSPYEISRAPDELHYTYLDTFGRPVIVAYKKNLVEQHIQDIVVHYTFNKVLMLQEPLLVVAAFYILFFTVIIYVRLDFSITKDPAAEARMKVACITEQVLTLVNKRIGLYRHFDETVNRYKQSRDISTLNSGKKSLETEHKALTSEIALLQSRLKTEGSDLCDRVSEMQKLDAQVKELVLKSAVEAERLVAGKLKKDTYIENEKLISGKRQELVTKIDHILDAL
# Biological target: T1, Methylenetetrahydrofolate dehydrogenase (NADP+ dependent) 2 (human (endogenous in HCT-116))
# Test: affinity purification with mass spectrometry; co-IP of endogenous MTHFD2 from HCT-116 WT lysate (1 or 2 mg, Pierce IP lysis buffer) with two anti-MTHFD2 antibodies (AP, NC) on Dynabeads Protein A, 4 °C, 2 h, no cross-linkage; controls: MTHFD2 knockout (D2-KO) cells and IgG; SDS gel, in-gel digestion, LC-MS/MS
row,binding,Molecule
1,no binding,nuclear lamin (human (endogenous in HCT-116))
2,binds,Heterogeneous nuclear ribonucleoprotein Q (from UniProt O60506 1-623)
3,binds,X-ray repair cross-complementing protein 6 (from UniProt P12956 1-609)
4,no binding,DHFR (from UniProt P00374 1-187) (enzyme)
5,binds,Heat shock cognate 71 kDa protein (from UniProt P11142 1-646)
6,binds,ATP-dependent RNA helicase DDX3X (from UniProt O00571 1-662)
7,binds,Heat shock protein beta-1 (from UniProt P04792 1-205)
8,binds,Splicing factor 3B subunit 3 (from UniProt Q15393 1-1217)
9,binds,60 kDa heat shock protein (from UniProt P10809 27-573)
10,binds,Alpha-enolase (from UniProt P06733 1-434) (enzyme)
11,binds,Ezrin (from UniProt P15311 1-586)
12,no binding,TYMS (from UniProt P04818 1-313) (enzyme)
13,binds,Replication protein A 70 kDa DNA-binding subunit (from UniProt P27694 1-616)
14,binds,Interleukin enhancer-binding factor 2 (from UniProt Q12905 1-390)
15,binds,Heterogeneous nuclear ribonucleoprotein K (from UniProt P61978 1-463)
16,no binding,MTHFD1 (from UniProt P11586 1-935) (enzyme)
17,binds,Nucleophosmin (from UniProt P06748 1-294)
18,binds,"Stress-70 protein, mitochondrial (from UniProt P38646 47-679)"
19,binds,B1
20,binds,B2
21,no binding,B3
22,no binding,B4
23,binds,B5
24,binds,B6
